For this assay, the system named is CD2F1 mice, L1210 leukemia ip, survival T/C. Briefly: NCI In Vivo Anticancer Drug Screen. Data for tumor model L1210 Leukemia (intraperitoneal) in CD2F1 (CDF1) mice. The note with it: higher T/C = longer survival. In short, it runs like this: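 Transplantable tumor in mice; compound-treated vs vehicle-treated groups. Read-out = treated/control ratio of the measured endpoint.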

Where [1] appears, read: T/C endpoint: mean survival time, dose: 100.0 mg/kg/injection, schedule: Q04DX002 (ip), vehicle: saline with Tween-80.
[2] abbreviates: T/C endpoint: mean survival time, dose: 200.0 mg/kg/injection, schedule: Q04DX002 (ip), vehicle: saline with Tween-80.
Where [3] appears, read: T/C endpoint: mean survival time, dose: 400.0 mg/kg/injection, schedule: Q04DX002 (ip), vehicle: saline with Tween-80.
[4] abbreviates: T/C endpoint: mean survival time, dose: 200.0 mg/kg/injection, schedule: Q04DX003 (ip), vehicle: saline with Tween-80.
Where [5] appears, read: T/C endpoint: mean survival time, dose: 400.0 mg/kg/injection, schedule: Q04DX003 (ip), vehicle: saline with Tween-80.
[6] abbreviates: T/C endpoint: mean survival time, dose: 100.0 mg/kg/injection, schedule: Q01DX001 (ip), vehicle: saline with Tween-80.
Where [7] appears, read: T/C endpoint: mean survival time, dose: 200.0 mg/kg/injection, schedule: Q01DX001 (ip), vehicle: saline with Tween-80.
[8] abbreviates: T/C endpoint: mean survival time, dose: 400.0 mg/kg/injection, schedule: Q01DX001 (ip), vehicle: saline with Tween-80.
Setting [9] is: T/C endpoint: mean survival time, dose: 100.0 mg/kg/injection, schedule: Q04DX003 (ip), vehicle: saline with Tween-80.

The structures appear in SMILES notation. The list shows only some results of the screen, not a fair sample: it is rich in T/C values a quarter to a half above the control, in often repeated tests (any T/C) and in doses without a T/C. Further doses and runs are listed elsewhere. T/C gives the treated animals as a percentage of the vehicle group. Some entries give survivors of the animals treated and no T/C: the source holds a T/C of zero for them, seemingly a mark for toxic or unscored doses. Some doses without a T/C left all or most animals alive at the check, yet need not have been tolerated: the source hardly ever lists a survival T/C far under the control, and the zero likely stands for such cases as well. Counts of survivors are from the toxicity check (mostly the fifth day) where no day follows; animals may have died later. Schedule codes are those of the source, read here as Q, the interval in days (D) or hours (H), X, the number of doses. Some entries hold several experiments; the results are listed from low to high. Where survival is the endpoint, the PubChem record calls one and a half times the control and up active, and a quarter to a half above the control has no call in these data; cut-offs in other NCI protocols can differ. Counts like (3×) stand for listed records that agree.

`COc1ccc(NC2=C(C)C(=O)C3=C(C2=O)[C@H](COC(N)=O)[C@]2(OC)[C@@H]4N[C@@H]4CN32)cc1OC`: the T/C is 125 % of control (T/C endpoint: median survival time, dose: 1.5 mg/kg/injection, schedule: Q01DX001 (ip), vehicle: water); 134 % of control (T/C endpoint: median survival time, dose: 6.0 mg/kg/injection, schedule: Q01DX001 (ip), vehicle: water); 141 and 148 % of control (T/C endpoint: median survival time, dose: 12.0 mg/kg/injection, schedule: Q01DX001 (ip), vehicle: water). The survivor count (T/C endpoint: median survival time, dose: 24.0 mg/kg/injection, schedule: Q01DX001 (ip), vehicle: water) is 4 of 6. For `NC(N)=N/N=C/c1ccncc1`, the survivor count is, setting by setting: (T/C endpoint: mean survival time, dose: 200.0 mg/kg/injection, schedule: Q04DX002 (ip), vehicle: saline) 0 of 3; (T/C endpoint: mean survival time, dose: 400.0 mg/kg/injection, schedule: Q04DX002 (ip), vehicle: saline) 0 of 3. Take `C[S+](C)c1ccccc1`: the survivor count is, setting by setting: under setting [1], 0 of 3; under setting [2], 0 of 3; under setting [3], 0 of 3. For the compound `CN1CCN(c2ccccc2)CC1`, the survivor count runs as follows: (T/C endpoint: mean survival time, dose: 200.0 mg/kg/injection, schedule: Q01DX001 (ip), vehicle: saline) 0 of 6; (T/C endpoint: mean survival time, dose: 400.0 mg/kg/injection, schedule: Q01DX001 (ip), vehicle: saline) 0 of 6. Take `O=C(O)/C=N/NS(=O)(=O)c1ccc(Cl)cc1`: the T/C (T/C endpoint: mean survival time, dose: 100.0 mg/kg/injection, schedule: Q04DX003 (ip), vehicle: other) is 128 and 132 % of control; the T/C (T/C endpoint: mean survival time, dose: 200.0 mg/kg/injection, schedule: Q04DX003 (ip), vehicle: other) is 143 % of control. Also, where the note is “T/C endpoint: mean survival time, dose: 400.0 mg/kg/injection, schedule: Q04DX003 (ip), vehicle: other”, the survivor count is listed as 2 of 6.

Consider `Cc1ccc(NC2=NCCS2)c(C)c1`, for which the T/C under setting [1] is 89, 97, 98, 100 % of control. For the same compound, the survivor count by setting is: under setting [2], 0 of 3 and 1 of 6; under setting [3], 0 of 3 and 0 of 6. For `COc1ccc([NH-])cc1.COc1ccc([NH-])cc1.[Br][Pt+2][Br]`, the survivor count was 2 of 6 (T/C endpoint: mean survival time, dose: 100.0 mg/kg/injection, schedule: Q04DX003 (ip), vehicle: distilled water + Tween-80) and 0 of 6 (T/C endpoint: mean survival time, dose: 200.0 mg/kg/injection, schedule: Q04DX003 (ip), vehicle: distilled water + Tween-80). For `CNC(=O)c1ccc[n+](CC(=O)NCc2ccccc2)c1`, the survivor count reads like this: (T/C endpoint: mean survival time, dose: 200.0 mg/kg/injection, schedule: Q04DX003 (ip), vehicle: saline) 3 of 6; (T/C endpoint: mean survival time, dose: 400.0 mg/kg/injection, schedule: Q04DX003 (ip), vehicle: saline) 0 of 6.

Turning to `O=C(CCl)NCCCNC(=O)CCl`, the survivor count is recorded as 0 of 6 under setting [4] and 0 of 6 under setting [5]. As for `CC1(C)CC(=O)C(CSC(=O)c2ccccc2)C(=O)C1`, for the setting “T/C endpoint: mean survival time, dose: 100.0 mg/kg/injection, schedule: Q01DX009 (ip), vehicle: Klucel (hydroxypropylcellulose) (HPC)”, the survivor count was 0 of 10. Regarding `Cc1ncc(COP(=O)(O)O)c(C=NC(CCCCN)C(=O)O)c1O.O.[Cu]` (stereo not drawn), the survivor count is 0 of 3 under setting [6], 0 of 3 under setting [7] and 1 of 3 under setting [8]. For `c1ccc(C(c2ccccc2)[n+]2ccccc2)cc1`, the survivor count by setting is: (T/C endpoint: mean survival time, dose: 20.0 mg/kg/injection, schedule: Q01DX009 (ip), vehicle: saline) 0 of 6; under setting [9], 0 of 6; under setting [4], 0 of 6; under setting [5], 0 of 6. Take `O=c1ccn(C2CC3[O][Sn]([c]4ccccc4)([c]4ccccc4)[O]CC3O2)c(=O)[nH]1` (stereo not drawn): under “T/C endpoint: mean survival time, dose: 50.0 mg/kg/injection, schedule: Q01DX005 (ip), vehicle: distilled water + Tween-80”, the survivor count is reported as 6 of 6. Regarding `CC1(C)N=C(N)N=C(N)N1c1ccc(Cl)c(Cl)c1`, the survivor count (T/C endpoint: mean survival time, dose: 200.0 mg/kg/injection, schedule: Q01DX001 (ip), vehicle: Klucel (hydroxypropylcellulose) (HPC)) is 1 of 6 and the survivor count (T/C endpoint: mean survival time, dose: 400.0 mg/kg/injection, schedule: Q01DX001 (ip), vehicle: Klucel (hydroxypropylcellulose) (HPC)) is on record as 0 of 6. `CNC(C)COc1ccc(O)cc1` (stereo not drawn): the survivor count (T/C endpoint: mean survival time, dose: 400.0 mg/kg/injection, schedule: Q01DX009 (ip), vehicle: saline) is on record as 3 of 6.

As to `O=Cc1c(O)c2ccccc2[nH]c1=O`, the survivor count runs as follows: (T/C endpoint: mean survival time, dose: 200.0 mg/kg/injection, schedule: Q01DX009 (ip), vehicle: saline with Tween-80) 2 of 6; (T/C endpoint: median survival time, dose: 200.0 mg/kg/injection, schedule: Q01DX009 (ip), vehicle: Klucel (hydroxypropylcellulose) (HPC)) 0 of 6. In the case of `CCCCCC(C)C1=NC(C)(C)CC(C)O1` (stereo not drawn), under setting [8], the survivor count was 0 of 6. On to `O=C(O)c1ccccc1Nc1ccc(Br)cc1`, for which the survivor count under setting [5] is recorded as 0 of 6. For the compound `NNC(=O)c1ccc(-c2ccccc2)cc1`, the survivor count is 1 of 6 (T/C endpoint: mean survival time, dose: 200.0 mg/kg/injection, schedule: Q01DX009 (ip), vehicle: water) and 1 of 6 (T/C endpoint: mean survival time, dose: 400.0 mg/kg/injection, schedule: Q01DX009 (ip), vehicle: water). In the case of `Cc1ccc2ncccc2c1[N+](=O)[O-]`, the survivor count under setting [5] was 2 of 6. Take `OCC1OC(c2[nH]nc3c(NO)ncnc23)C(O)C1O` (stereo not drawn): the survivor count (T/C endpoint: mean survival time, dose: 300.0 mg/kg/injection, schedule: Q01DX001 (ip), vehicle: saline) is on record as 1 of 6. With `O=C(CC(=O)C(F)(F)F)c1cccs1.O=C(CC(=O)C(F)(F)F)c1cccs1.O=C(CC(=O)C(F)(F)F)c1cccs1.[Sm]`, under “T/C endpoint: median survival time, dose: 400.0 mg/kg/injection, schedule: Q04DX002 (ip), vehicle: saline with Tween-80”, the survivor count is 1 of 3. For the compound `O=C(Nc1ccc(F)cc1)Nc1ccc(F)cc1`, the survivor count under setting [3] is 3 of 3.

As to `CC1CCC(C(C)C2C(O)CC3C4CC=C5CC(O)CCC5(C)C4CCC32C)NC1` (stereo not drawn), under setting [5], the survivor count was 6 of 6. As for `Cc1cc(C)cc(C(C)(C)C)c1`, the survivor count (T/C endpoint: mean survival time, dose: 400.0 mg/kg/injection, schedule: Q01DX009 (ip), vehicle: saline with Tween-80) is on record as 4 of 6. For the compound `CCN(CC)Cc1cc(Nc2c3ccc(Cl)cc3nc3ccc(OC)nc23)ccc1O`, the survivor count under setting [6] is recorded as 3 of 3. Take `CC1=Nc2ccccc2N=C(C)C1`: where the note is “T/C endpoint: mean survival time, dose: 200.0 mg/kg/injection, schedule: Q01DX009 (ip), vehicle: acetone”, the survivor count was 2 of 6. As to `CCOc1ccc(Nc2nc(C(Cl)(Cl)Cl)cc(C(Cl)(Cl)Cl)n2)cc1CN(CC)CC`, the survivor count was 2 of 6 under setting [9], 2 of 6 under setting [4] and 1 of 6 under setting [5]. As to `CC(C)=NO`, the survivor count under setting [5] is given as 0 of 6.

On to `CC(=O)N(C)C`, for which the T/C is 86, 93, 103 % of control (2×) (T/C endpoint: mean survival time, dose: 62.5 mg/kg/injection, schedule: Q01DX009 (ip), vehicle: saline); 86, 94, 98, 103 % of control (T/C endpoint: mean survival time, dose: 125.0 mg/kg/injection, schedule: Q01DX009 (ip), vehicle: saline); 88, 95, 97, 110 % of control (T/C endpoint: mean survival time, dose: 250.0 mg/kg/injection, schedule: Q01DX009 (ip), vehicle: saline); 91, 97, 98, 104 % of control (T/C endpoint: mean survival time, dose: 500.0 mg/kg/injection, schedule: Q01DX009 (ip), vehicle: saline). The survivor count (T/C endpoint: mean survival time, dose: 3600.0 mg/kg/injection, schedule: Q01DX009 (ip), vehicle: saline) is 3 of 6 and 5 of 6.

With `CC1(C[N+](C)(C)C)COC(C)(C)O1` (stereo not drawn), the survivor count under setting [7] is recorded as 0 of 6 and the survivor count under setting [8] was 0 of 6. As to `C[N+]12CCC34c5ccccc5NC3C3C(CC(=O)[O-])OCC=C(C1)C3CC42` (stereo not drawn), the survivor count (T/C endpoint: mean survival time, dose: 300.0 mg/kg/injection, schedule: Q01DX001 (ip), vehicle: other) is 1 of 6. With `O=C(CCBr)c1ccc(Cl)cc1`, the survivor count is 0 of 6 (T/C endpoint: mean survival time, dose: 200.0 mg/kg/injection, schedule: Q01DX009 (ip), vehicle: saline sonified) and 0 of 6 (T/C endpoint: mean survival time, dose: 400.0 mg/kg/injection, schedule: Q01DX009 (ip), vehicle: saline sonified).

The values are drawn from PubChem BioAssay AID256 (DTP/NCI, 2004).
